Assay results as given in PMC4068353, “Characterization of 14-3-3-ζ Interactions with Integrin Tails” (Journal of Molecular Biology, 2013).
No constants are given. Whether binding was seen depends on the method and setting. Some results given as binding are weak or reduced against the parent protein; the word gives no strength.

Chains of the proteins cited; added tags and fusions are not shown. Lines headed by an entry give the natural chain unless they say otherwise; changes in a name come on top.
UniProt P63104: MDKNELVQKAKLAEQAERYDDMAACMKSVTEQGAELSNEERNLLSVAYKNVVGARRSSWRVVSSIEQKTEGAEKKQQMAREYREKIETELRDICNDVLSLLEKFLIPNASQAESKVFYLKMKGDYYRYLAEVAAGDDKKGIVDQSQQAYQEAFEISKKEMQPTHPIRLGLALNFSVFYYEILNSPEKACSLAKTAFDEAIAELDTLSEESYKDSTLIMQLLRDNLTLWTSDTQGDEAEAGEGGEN

Key:
[1] = target: β1D integrin cytoplasmic tail, wild type (human (from the printed UniProt entry)); assay: NMR titration; 15N-1H HSQC of 15N-labeled integrin tail (0.1 mM) before and after addition of unlabeled 14-3-3-ζ (wt or variant; equimolar, 0.1 mM); 20 mM sodium phosphate, 50 mM NaCl, pH 6.5, 5% D2O, 25 °C; read-out: loss of resonance intensity (I/Io); both purified
[2] = target: T1, β7 integrin cytoplasmic tail, wild type (human (from the printed UniProt entry)); assay: as above
T1 sequence: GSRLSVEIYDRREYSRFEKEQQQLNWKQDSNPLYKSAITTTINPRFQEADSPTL

[3] = target: T2, β2 integrin cytoplasmic tail, wild type (human (from the printed UniProt entry)); assay: as above
[4] = target: T3, β3 integrin cytoplasmic tail, wild type (human (from the printed UniProt entry)); assay: as above
T3 sequence: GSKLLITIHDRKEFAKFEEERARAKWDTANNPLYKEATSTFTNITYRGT

[5] = target: β1A integrin cytoplasmic tail, wild type (human (from the printed UniProt entry)); assay: as above
[6] = target: T2, β2 integrin cytoplasmic tail, wild type (human); assay: NMR titration; data not shown: β2 integrin tail with 14-3-3-ζ wt, S58A and S58E; both purified
[7] = target: T4, α4 integrin cytoplasmic tail, wild type (human (from the printed UniProt entry)); assay: ITC; integrin tail fragment in the cell (80-200 μM), 14-3-3-ζ in the syringe (0.75-2 mM); 298 K; 20 mM sodium phosphate, 50 mM NaCl, pH 6.5; one-site model; both purified
T4 sequence: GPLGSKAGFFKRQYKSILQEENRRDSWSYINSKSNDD

[8] = target: T2, β2 integrin cytoplasmic tail, wild type (human); assay: as above

| binding [1] | binding [2] | binding [3] | binding [4] | binding [5] | binding [6] | binding [7] | binding [8] | Substance |
| --- | --- | --- | --- | --- | --- | --- | --- | --- |
| binds weakly | binds weakly | binds weakly | binds weakly | binds weakly | binds weakly | binds weakly | binds weakly | 14-3-3-ζ (from UniProt P63104 1-245) |
|  |  |  |  | binds weakly | binds weakly |  |  | 14-3-3-ζ S58E (from UniProt P63104 1-245) |
|  |  |  |  | binds weakly | binds weakly |  |  | 14-3-3-ζ S58A (from UniProt P63104 1-245) |
